The nature of this experiment: qHTS Assay for Lipid Storage Modulators in Drosophila S3 Cells.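 As to cell number change: cells counted by Cell Tracker Red CMTPX staining in the red channel.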 Conditions: BODIPY lipid droplet fluorescence, 18-24 h; for cell number change: measured here: cell count max response, cells fed with added oleic acid. The essentials: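 Drosophila S3 cells got compounds at several concentrations plus oleic acid (400 uM solution). Laser-scanning cytometry with 488 nm excitation read lipid droplets at 500-530 nm and cells at 575-640 nm. Percent activity was relative to 20 uM Triacsin C.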

Setting [1] is: measured here: lipid fluorescence (Fed channel) AC50, cells fed with added oleic acid.
Where [2] appears, read: measured here: cell number channel AC50, cells fed with added oleic acid.

Some of the results follow. These are further read-outs of the screen, such as a control signal, another cell line or another target. No call is given for them. Most of these compounds were active or inconclusive in the main read-out, so they are no random draw. Words in brackets tell the shape of the fitted curve; partial curves, single points and poor fits give uncertain potencies.

Broadly, the AC50 is the midpoint of the concentration-response curve, whichever way the signal moves. Low values mean activity at low concentration, high ones activity only at high concentration. For `CN1CCN(S(=O)(=O)c2ccc(CNC(=O)c3ccccc3)s2)CC1`, the cell number change was -13.9%. Further, under setting [1], the AC50 was 6.51 µM [rising, partial curve, poor fit].
Regarding `CCOc1ccccc1NC(=O)c1ccc(S(=O)(=O)N2CCOCC2)cc1`, the cell number change came to 32.8%. Further, under setting [2], the AC50 is 2.91 µM [rising, full curve]. Further, the AC50 under setting [1] was 2.91 µM [rising, single point].
Regarding `CCN(CC)S(=O)(=O)c1ccc(N2CCCC2)c(NC(=O)c2nn(C)c(=O)c3ccccc23)c1`, the cell number change was 14.8%.
Consider `CC(C)(C#N)NC(=O)C(=O)c1c(-c2ccccc2)cc2ccccn12`, for which the cell number change was -45%. The AC50 under setting [2] was 0.259 µM [falling, full curve, poor fit]. Moreover, the AC50 under setting [1] is 0.82 µM [falling, full curve].
Consider `COc1ccc(CC(=O)N2CC(C)CC(C)C2)cc1` (stereo not given), for which the AC50 under setting [2] is 5.17 µM [rising, partial curve, poor fit].
Take `COc1ccccc1C(=O)COC(=O)c1cc(S(=O)(=O)N2CCCCC2)ccc1N1CCOCC1`: the cell number change amounted to 11%. In addition, the AC50 under setting [1] is 29.1 µM [falling, single point].
Turning to `CCN(CC)S(=O)(=O)c1ccc(C)c(NC(=O)COC(=O)c2ccc(C)c(S(=O)(=O)N3CCOCC3)c2)c1`, the cell number change stood at 41.2%. Further, the AC50 under setting [2] was 29.1 µM [rising, single point]. Also, under setting [1], the AC50 was 29.1 µM [rising, single point].
Consider `COc1ccc(-c2cn[nH]c2-c2ccc(OCc3ccccc3)cc2O)cc1OC`, for which the cell number change is -15%. Besides, under setting [1], the AC50 was 1.64 µM [falling, full curve, poor fit].
Turning to `Cc1ccc(CNC(=O)c2sc3nc4c(c(C(F)(F)F)c3c2N)CCC4)cc1`, the cell number change stood at 19.5%. In addition, the AC50 under setting [1] is 0.291 µM [rising, partial curve, poor fit].
In the case of `CCCCCOC(=O)c1[nH]c2c(c1C)C(=O)C(C(=O)OC)C(C)C2` (stereo not given), the cell number change is -54.1%. Also, under setting [2], the AC50 is 23.1 µM [falling, partial curve]. Further, the AC50 under setting [1] was 29.1 µM [falling, single point].
As for `CCOC(=O)C1CCN(C(=O)Nc2ccc(Cl)cc2)CC1`, the cell number change was 0.305%. The AC50 under setting [1] is 4.61 µM [rising, full curve].
Turning to `O=C(CSc1nc2ccc(Nc3nc(N4CCOCC4)nc(N4CCOCC4)n3)cc2s1)Nc1ccccc1F`, the cell number change was -4.25%. The AC50 under setting [1] was 23.1 µM [rising, partial curve].
`CCOc1ccccc1NC=C1C(=O)OC2(CCCCC2)OC1=O`: the cell number change amounted to 5.29%. The AC50 under setting [1] is 20.6 µM [rising, single point].
Turning to `COc1ccc(Cn2c(=O)[nH]c3cc(C(=O)NCCCN4CCCC4)ccc3c2=O)cc1`, the cell number change came out at 20.9%. Also, the AC50 under setting [1] was 0.13 µM [falling, full curve, poor fit].
In the case of `O=C(NCc1ccc2c(c1)OCO2)c1cc(-c2ccncc2)nc2ccccc12`, under setting [1], the AC50 is 6.51 µM [rising, single point].
Regarding `N#Cc1c(C(F)(F)F)cc(-c2cccc(Cl)c2)[nH]c1=O`, the cell number change is 17.7%. Besides, under setting [1], the AC50 was 2.06 µM [falling, partial curve].
With `O=C1NC(=Nc2cccc([N+](=O)[O-])c2)SC1(CO)CO`, the cell number change turned out to be 2.78%.
Still for that read-out and setting: to `CCOc1ccc(S(=O)(=O)N2CCCC(C(=O)NCc3ccccc3)C2)cc1` (stereo not given) belongs 20.8%.
With `CCCC(=O)NC(=S)Nc1ccccc1OC`, the cell number change was -0.319%. For the same molecule, under setting [1], the AC50 is 1.64 µM [falling, partial curve].
`COc1ccccc1C1C(C(=O)NCc2ccccc2)=C(C)Nc2ncnn21` (stereo not given): the cell number change worked out at 19.4%. For the same molecule, the AC50 under setting [1] is 29.1 µM [rising, single point].
Regarding `COc1ccc(N=C2SC(C(=O)O)CC(=O)N2C)cc1` (stereo not given), the cell number change is -10%.
On to `CC1CC(C)C[N+](=C2C=C(N3CCCC3)CC(C)(C)C2)C1` (stereo not given), for which the cell number change is -56.8%. For the same molecule, the AC50 under setting [1] is 23.1 µM [falling, partial curve, poor fit].
`N/C(Cc1ccc(Cl)cc1Cl)=N\OC(=O)Cc1ccc(Cl)cc1`: the cell number change was -0.553%. For the same molecule, under setting [1], the AC50 was 1.64 µM [rising, partial curve, poor fit].
`COc1ccc2nc(Nc3nc(CSc4nc5ccccc5[nH]4)cc(=O)[nH]3)nc(C)c2c1`: the cell number change was -75.2%. Further, the AC50 under setting [2] is 23.1 µM [falling, single point]. In addition, the AC50 under setting [1] was 6.51 µM [rising, partial curve, poor fit].
In the case of `CSc1ccc(-c2sc(Nc3cccc4ccccc34)n[n+]2-c2ccccc2)cc1`, the cell number change is -13.8%. Further, the AC50 under setting [1] was 8.2 µM [falling, single point].
Consider `O=C(CSc1nc(=O)n2ccccc2n1)NCc1ccc(F)cc1`, for which the cell number change is -7.13%. For the same molecule, the concentration at half-maximal activity (AC50) under setting [2] was 3.26 µM [falling, single point]. The half-maximal activity concentration (AC50) under setting [1] is 3.66 µM [falling, single point].
As for `COC(=O)CN(c1ccc(F)cc1)S(=O)(=O)c1ccccc1`, the AC50 under setting [2] is 0.082 µM [falling, full curve, poor fit] and the AC50 under setting [1] is 29.1 µM [rising, single point].
For `Cc1ccc(C(C)(C)C)cc1S(=O)(=O)Nc1ncnc2sccc12`, the cell number change amounted to 37.4%. Under setting [2], the AC50 is 29.1 µM [rising, single point].
`CC(=O)Nc1ccc(SC[C@H](C)CN2CC[C@H](C(C)(C)C)CCC2=O)cc1`: the cell number change came out at 8.1%. Moreover, the AC50 under setting [2] is 2.06 µM [falling, partial curve]. For the same molecule, under setting [1], the AC50 was 0.461 µM [falling, partial curve, poor fit].
As for `O=C(COC(=O)c1cc(-c2cccs2)nn1-c1ccccc1)Nc1cccc([N+](=O)[O-])c1`, the cell number change worked out at 9.15%. Under setting [1], the half-maximal activity concentration (AC50) is 6.51 µM [falling, single point].
As to `CCOC(=O)Nc1cc2c(cc1C(C)=O)OCO2`, the AC50 under setting [1] is 0.731 µM [rising, single point].
`COc1ccc(NS(=O)(=O)c2cccc(NC(=O)c3ccc(Cl)nc3)c2)cc1`: the cell number change was -12.9%.
As for `CCOC(=O)C1CCCN(C(=O)c2cccs2)C1` (stereo not given), the cell number change is -169%. In addition, under setting [2], the AC50 is 18.4 µM [falling, single point].
Consider `CC(C)(C)c1[nH]nc2c1C(C1C=CCCC1)C(C#N)=C(N)O2` (stereo not given), for which the cell number change is -30.4%. Moreover, the AC50 under setting [2] was 29.1 µM [falling, single point]. The AC50 under setting [1] is 23.1 µM [falling, single point].
With `Cc1ccc(NS(=O)(=O)c2c(C(=O)N3CCCCCC3)c(C)n(C)c2C)cc1C`, the AC50 under setting [1] is 20.6 µM [rising, single point].
In the case of `COc1ccc(N2C(=O)c3ccc(C(=O)Nc4ccc(NC(C)=O)cc4)cc3C2=O)cc1`, the cell number change is -16.7%. For the same molecule, the AC50 under setting [2] was 0.00461 µM [falling, full curve, poor fit].
Turning to `COC(=O)Cn1c2ccc(C)cc2c2nc(C)sc21`, the cell number change is -21.8%.
`Cc1nnc(N2CCC(C(=O)N3CCCCCC3)CC2)c2nn(-c3ccc(Cl)cc3)c(C)c12`: the cell number change was -15.6%. Under setting [2], the AC50 is 6.51 µM [falling, single point]. Also, under setting [1], the AC50 was 3.66 µM [falling, partial curve, poor fit].
Regarding `CC(C)Cn1cc(C(=O)NCc2cccs2)c2c3ccccc3n(C)c2c1=O`, the cell number change is -39.3%. The AC50 under setting [2] is 18.4 µM [falling, partial curve, poor fit].
For `N#C/C(=C\c1ccc(-c2cccc(Cl)c2)o1)C(=O)Nc1cccc2cccnc12`, the cell number change was -3.78%. Besides, the AC50 under setting [1] was 0.517 µM [rising, single point].
As to `Cc1cccc(NC(=O)c2ccc(COc3ccc(Cl)cc3Cl)o2)n1`, the cell number change was 59.5%. Also, the AC50 under setting [2] is 11.6 µM [rising, partial curve, poor fit].
For the molecule `CCCN1C2=NS(=O)(=O)CCN2c2ccccc21`, the cell number change was -0.357%.
Regarding `O=C(Nc1nc(-c2ccccn2)cs1)C1COc2ccccc2O1` (stereo not given), the cell number change was -8.76%. Under setting [1], the AC50 is 7.31 µM [falling, partial curve].
As to `CNc1ccccc1C(C)(C)c1ccn[nH]1`, the cell number change is -44.9%. Under setting [2], the AC50 is 20.6 µM [falling, single point].
`CC1CCCCC12NC(=O)N(CC(=O)Nc1ccc3[nH]c(=O)[nH]c3c1)C2=O` (stereo not given): the cell number change was -37.5%. Besides, under setting [2], the AC50 is 0.92 µM [falling, full curve]. Besides, the AC50 under setting [1] is 1.3 µM [falling, full curve].
`O=C(O)c1cccc(Nc2nc(-c3cc4ccccc4oc3=O)cs2)c1`: the cell number change was -33.2%. Besides, under setting [2], the AC50 was 0.082 µM [falling, full curve, poor fit].
For the molecule `O=C(CCCCCCC(=O)NCc1ccccc1)NCc1ccccc1`, the cell number change is -8.47%. Moreover, the AC50 under setting [1] was 16.4 µM [rising, partial curve].
In the case of `COc1ccc(Cl)cc1/C=N/NC(=O)c1c(-c2ccccc2)noc1C`, the cell number change is -26.6%. In addition, the AC50 under setting [1] was 0.58 µM [falling, single point].
For `CN(Cc1ccc(F)cc1)C(=O)c1cc(COc2ccc(-n3cncn3)cc2)on1`, the cell number change is -11.3%. The AC50 under setting [1] was 29.1 µM [falling, single point].
In the case of `CCOC(=O)c1ccccc1NC(=O)COc1coc(CN2CCc3ccccc32)cc1=O`, the cell number change stood at 58.6%. For the same molecule, the AC50 under setting [2] was 16.4 µM [rising, single point].
On to `CC1(C)CC(=O)C2=C(C1)N1C(=C(C#N)C2c2ccccc2Cl)N=C(N)c2ccccc21` (stereo not given), for which the cell number change worked out at 5.81%. Further, under setting [1], the AC50 is 4.11 µM [rising, single point].
For the molecule `Cc1[nH]nc2c1C(c1ccoc1)C(C#N)=C(N)O2` (stereo not given), the cell number change is -11.3%. The AC50 under setting [1] was 0.058 µM [falling, full curve].
In the case of `COc1nc(-c2ccccc2)ccc1-c1noc(-c2ccc(F)cc2)n1`, the cell number change is -20%. Also, the half-maximal activity concentration (AC50) under setting [2] is 0.0259 µM [falling, full curve, poor fit].
On to `CC1CCN(S(=O)(=O)c2cccc(C(=O)Nc3nncs3)c2)CC1`, for which the cell number change was -7.76%. Further, under setting [2], the AC50 was 6.51 µM [rising, single point]. Under setting [1], the AC50 is 6.51 µM [rising, single point].
Consider `N#Cc1cccc(NC(=O)Cn2cnc(S(=O)(=O)N3CCCCC3)c2)c1`, for which the cell number change was -12.7%. Moreover, the AC50 under setting [1] was 7.31 µM [falling, partial curve].
Regarding `NS(=O)(=O)c1cc(C(=O)OCC(=O)N2CCc3ccccc3C2)ccc1Cl`, the cell number change was found to be 10%. Further, the AC50 under setting [1] is 18.4 µM [rising, single point].
Turning to `CC1(C)CN2C(=O)c3ccccc3C2(C)S1` (stereo not given), the cell number change is -57.4%. Moreover, the AC50 under setting [2] is 29.1 µM [falling, single point]. For the same molecule, the AC50 under setting [1] was 0.58 µM [falling, single point].
